CN111196850A
These are yes or no findings as the source states them, for the method shown. Some entries that bind do so weakly or less than the wild type.

B1: 人源化单克隆抗体1K1/1H2 (antibody, human IgG1, kappa, V domains shown)
VH: EVKLVESGGGLVQPGGSLKLSCAASGFTFSSFGMNWVRQAPGKGLEWVAYISSGSSIIYYADSVKGRFTISRDNPKNSLYLQMNSLRDEDTAVYYCAREPYGYDVYYFDYWGQGTTVTVSS
VL: DIVMTQSPASLAVSLGQRATITCKASQSIDYDGDSYMNWYQQKPGQPPKLLIYAASNLDSGVPARFSGSGSGTDFTLTIHPVEPEDFATYYCQQSNEDPYTFGGGTKVEIKR
B2: 人源化单克隆抗体1K3/1H2 (antibody, human IgG1, kappa, V domains shown)
VH: EVKLVESGGGLVQPGGSLKLSCAASGFTFSSFGMNWVRQAPGKGLEWVAYISSGSSIIYYADSVKGRFTISRDNPKNSLYLQMNSLRDEDTAVYYCAREPYGYDVYYFDYWGQGTTVTVSS
VL: DIVMTQSPASLAVSPGQRATISCKASQSIDYDGDSYMNWYQQKPGQPPKLLIYAASNLDTGIPARFSGSGSGTDFTLTISSVEEEDTATYYCQQSNEDPYTFGGGTKVEIKR
B3: 人源化单克隆抗体1K2/1H2 (antibody, human IgG1, kappa, V domains shown)
VH: EVKLVESGGGLVQPGGSLKLSCAASGFTFSSFGMNWVRQAPGKGLEWVAYISSGSSIIYYADSVKGRFTISRDNPKNSLYLQMNSLRDEDTAVYYCAREPYGYDVYYFDYWGQGTTVTVSS
VL: DIVLTQSPASLAVSLGQRATITCKASQSIDYDGDSYLNWYQQKPGQPPKLLIYAASNKDSGVPARFSGSGSGTDFTLTINPVEAEDFAVYYCQQSNEDPYTFGGGTKVEIKR

biological target: rhTSLP-mFc融合蛋白 (human); assay: ELISA: rhTSLP-mFc coated, goat anti-human IgG-HRP detection

binding, binds:
B1
B2
B3
